Experimental data: article PMC5620080, “The cryo-EM structure of hibernating 100S ribosome dimer from pathogenic Staphylococcus aureus” (Nature Communications, 2017)
These are yes or no findings as the source states them, for the method shown. Some results given as binding are weak or reduced against the parent protein; the word gives no strength.

Chains of the proteins cited; added tags and fusions are not shown.
UniProt P48940: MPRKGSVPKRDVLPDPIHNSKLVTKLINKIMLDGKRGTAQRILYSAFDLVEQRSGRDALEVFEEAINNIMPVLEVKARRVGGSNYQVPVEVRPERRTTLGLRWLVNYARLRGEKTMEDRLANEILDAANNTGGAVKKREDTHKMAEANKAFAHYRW
UniProt A5IV09: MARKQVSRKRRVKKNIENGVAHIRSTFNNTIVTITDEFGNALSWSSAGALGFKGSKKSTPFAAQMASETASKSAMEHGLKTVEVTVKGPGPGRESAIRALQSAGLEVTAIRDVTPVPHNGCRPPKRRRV

Tests used:
Assay in all cases: cryo-EM structure; native 100S ribosome dimers purified from S. aureus; 6.8 Å map of the 100S, 6.7 Å focused map of the dimer interface (C2 symmetry), 3.2 Å masked 30S map; both purified
[1] = target: ribosomal protein uS7 of S. aureus (S. aureus (endogenous in strain JE2)) (UniProt P48940)
[2] = target: ribosomal protein uS11 of S. aureus (S. aureus (endogenous in strain JE2)) (UniProt A5IV09)
[3] = target: T1, ribosomal protein uS9 of S. aureus (S. aureus (endogenous in strain JE2)) (UniProt Q2FW39)
T1 sequence: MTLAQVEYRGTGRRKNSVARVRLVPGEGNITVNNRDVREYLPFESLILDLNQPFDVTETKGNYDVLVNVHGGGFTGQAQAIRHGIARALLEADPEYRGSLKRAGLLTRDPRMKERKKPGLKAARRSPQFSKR

Measured: binding

B1: S. aureus hibernating promoting factor (HPFSA), full length, in the native 100S ribosome (natural protein, UniProt Q2FIN9 1-190, looked up)
chain: MIRFEIHGDNLTITDAIRNYIEEKIGKLERYFNDVPNAVAHVKVKTYSNSATKIEVTIPLKNVTLRAEERNDDLYAGIDLINNKLERQVRKYKTRINRKSRDRGDQEVFVAELQEMQETQVDNDAYDDNEIEIIRSKEFSLKPMDSEEAVLQMNLLGHDFFVFTDRETDGTSIVYRRKDGKYGLIQTSEQ
notes: hibernating promoting factor (HPF), Staphylococcus aureus JE2 (USA300), full-length hpf under its native promoter; residues 1-190; first 100 residues modelled, C-terminal domain fitted as a homology model; Two copies in the 100S dimer, one for each 70S; also called long HPF; N-HPFSA (N-terminal domain); source: S. aureus hpf-knockout strain (USA300, JE2) with plasmid pLI50hpf; isolated with the …
binds: [1] | [2] | [3]
